The values below come from PMC8022279.

Chains of the proteins cited; added tags and fusions are not shown.
UniProt P33334: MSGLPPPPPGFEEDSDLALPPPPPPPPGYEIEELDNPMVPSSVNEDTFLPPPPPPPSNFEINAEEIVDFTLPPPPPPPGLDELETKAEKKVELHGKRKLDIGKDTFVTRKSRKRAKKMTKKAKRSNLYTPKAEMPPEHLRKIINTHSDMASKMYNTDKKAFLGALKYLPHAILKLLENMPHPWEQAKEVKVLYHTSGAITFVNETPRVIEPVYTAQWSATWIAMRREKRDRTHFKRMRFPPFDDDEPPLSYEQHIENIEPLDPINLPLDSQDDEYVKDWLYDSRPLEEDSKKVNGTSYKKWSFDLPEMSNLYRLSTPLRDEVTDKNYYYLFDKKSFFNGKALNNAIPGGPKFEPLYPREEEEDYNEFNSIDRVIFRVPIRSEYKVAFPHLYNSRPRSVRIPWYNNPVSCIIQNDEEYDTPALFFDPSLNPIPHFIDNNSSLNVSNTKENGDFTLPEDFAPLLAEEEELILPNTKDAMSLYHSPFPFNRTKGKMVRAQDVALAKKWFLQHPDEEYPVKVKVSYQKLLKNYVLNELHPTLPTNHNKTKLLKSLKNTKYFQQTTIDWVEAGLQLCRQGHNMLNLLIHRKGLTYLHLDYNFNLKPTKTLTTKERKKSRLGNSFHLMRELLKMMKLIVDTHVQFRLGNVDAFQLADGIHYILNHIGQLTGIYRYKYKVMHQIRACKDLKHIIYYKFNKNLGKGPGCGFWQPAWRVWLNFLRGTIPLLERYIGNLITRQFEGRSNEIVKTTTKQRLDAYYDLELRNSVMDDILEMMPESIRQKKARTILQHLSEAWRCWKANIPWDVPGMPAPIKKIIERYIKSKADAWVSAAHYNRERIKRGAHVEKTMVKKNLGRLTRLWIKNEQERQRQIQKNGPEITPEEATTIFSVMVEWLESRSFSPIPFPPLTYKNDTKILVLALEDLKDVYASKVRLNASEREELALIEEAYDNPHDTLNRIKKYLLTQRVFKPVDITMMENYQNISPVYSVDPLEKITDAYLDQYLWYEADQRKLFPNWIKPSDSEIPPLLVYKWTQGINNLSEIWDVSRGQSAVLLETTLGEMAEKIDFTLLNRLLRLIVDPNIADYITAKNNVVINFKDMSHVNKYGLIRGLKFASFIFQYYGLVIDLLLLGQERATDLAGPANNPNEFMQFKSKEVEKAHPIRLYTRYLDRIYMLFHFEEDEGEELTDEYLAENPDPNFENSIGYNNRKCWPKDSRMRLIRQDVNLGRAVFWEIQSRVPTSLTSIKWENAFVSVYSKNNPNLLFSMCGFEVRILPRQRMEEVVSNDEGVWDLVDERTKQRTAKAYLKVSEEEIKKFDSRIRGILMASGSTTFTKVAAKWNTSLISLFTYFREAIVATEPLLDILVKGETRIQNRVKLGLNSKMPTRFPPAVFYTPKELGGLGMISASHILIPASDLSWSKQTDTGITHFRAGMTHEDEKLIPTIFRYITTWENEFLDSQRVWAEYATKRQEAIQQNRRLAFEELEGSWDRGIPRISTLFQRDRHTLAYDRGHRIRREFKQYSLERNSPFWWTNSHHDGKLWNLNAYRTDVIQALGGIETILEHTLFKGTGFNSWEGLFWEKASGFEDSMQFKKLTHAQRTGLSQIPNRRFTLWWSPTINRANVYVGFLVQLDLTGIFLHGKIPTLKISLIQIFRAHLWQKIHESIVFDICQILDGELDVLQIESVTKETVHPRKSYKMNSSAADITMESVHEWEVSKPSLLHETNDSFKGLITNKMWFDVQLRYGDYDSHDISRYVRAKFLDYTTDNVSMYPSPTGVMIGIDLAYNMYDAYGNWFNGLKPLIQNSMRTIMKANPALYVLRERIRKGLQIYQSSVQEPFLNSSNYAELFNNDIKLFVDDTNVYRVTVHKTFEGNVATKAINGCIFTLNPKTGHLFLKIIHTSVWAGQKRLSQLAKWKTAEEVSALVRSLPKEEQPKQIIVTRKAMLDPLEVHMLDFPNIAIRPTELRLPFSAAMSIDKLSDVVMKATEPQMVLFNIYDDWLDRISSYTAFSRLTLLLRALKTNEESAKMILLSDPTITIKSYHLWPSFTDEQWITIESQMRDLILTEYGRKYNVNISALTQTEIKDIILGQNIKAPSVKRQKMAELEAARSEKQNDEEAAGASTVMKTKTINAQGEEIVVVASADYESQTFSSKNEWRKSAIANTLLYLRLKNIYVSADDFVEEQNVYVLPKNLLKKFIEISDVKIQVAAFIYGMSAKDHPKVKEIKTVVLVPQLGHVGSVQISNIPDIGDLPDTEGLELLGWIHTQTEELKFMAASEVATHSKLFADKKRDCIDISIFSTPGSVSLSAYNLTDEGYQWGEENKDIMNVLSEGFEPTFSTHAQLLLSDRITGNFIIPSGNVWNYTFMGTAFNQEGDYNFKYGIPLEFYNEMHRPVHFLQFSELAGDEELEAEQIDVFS

These are yes or no findings as the source states them, for the method shown. Some entries that bind do so weakly or less than the wild type.

Holding throughout (assay): cryo-EM structure; endogenous S. cerevisiae C/Ci-complex spliceosomes assembled in splicing extract on UBC4 pre-mRNA and affinity purified (buffer K-75, 75 mM KCl); C-complex particles of 6 datasets merged (C and P particles merged for the Prp19 module); focused classification and focused …
Assay [1] addresses T1, Lea1 (S. cerevisiae (endogenous in splicing extract)) (UniProt Q08963).
T1 sequence: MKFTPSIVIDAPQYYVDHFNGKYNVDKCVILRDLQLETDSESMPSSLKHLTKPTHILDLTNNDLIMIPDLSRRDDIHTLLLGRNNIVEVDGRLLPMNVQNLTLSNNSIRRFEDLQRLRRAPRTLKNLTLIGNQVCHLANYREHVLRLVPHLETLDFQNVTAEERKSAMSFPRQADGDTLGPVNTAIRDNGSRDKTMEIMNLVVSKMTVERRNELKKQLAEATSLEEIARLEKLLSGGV

The target of assay [2] is T2, Syf1 (S. cerevisiae (endogenous in splicing extract)) (UniProt Q04048).
T2 sequence: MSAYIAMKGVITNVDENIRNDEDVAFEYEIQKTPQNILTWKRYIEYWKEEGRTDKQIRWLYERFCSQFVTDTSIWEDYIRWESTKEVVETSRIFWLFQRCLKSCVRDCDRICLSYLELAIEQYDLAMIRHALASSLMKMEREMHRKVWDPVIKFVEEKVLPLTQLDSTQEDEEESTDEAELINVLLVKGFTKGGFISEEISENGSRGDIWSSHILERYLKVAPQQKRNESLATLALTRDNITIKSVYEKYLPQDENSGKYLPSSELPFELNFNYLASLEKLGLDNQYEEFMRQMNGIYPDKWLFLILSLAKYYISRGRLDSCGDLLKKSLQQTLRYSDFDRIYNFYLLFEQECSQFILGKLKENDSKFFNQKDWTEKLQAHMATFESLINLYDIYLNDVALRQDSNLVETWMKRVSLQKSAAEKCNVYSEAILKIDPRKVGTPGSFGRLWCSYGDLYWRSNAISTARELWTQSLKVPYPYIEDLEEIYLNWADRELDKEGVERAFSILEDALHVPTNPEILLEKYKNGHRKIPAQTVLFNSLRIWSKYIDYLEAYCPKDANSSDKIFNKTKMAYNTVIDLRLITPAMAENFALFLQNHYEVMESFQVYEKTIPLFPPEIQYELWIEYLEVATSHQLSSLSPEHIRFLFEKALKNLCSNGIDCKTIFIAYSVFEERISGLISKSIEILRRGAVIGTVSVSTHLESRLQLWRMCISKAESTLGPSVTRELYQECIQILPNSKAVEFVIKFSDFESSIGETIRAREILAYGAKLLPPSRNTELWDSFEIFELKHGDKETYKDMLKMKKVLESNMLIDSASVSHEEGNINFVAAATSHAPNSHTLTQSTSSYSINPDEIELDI

Assay [3] deals with T3, Clf1 (S. cerevisiae (endogenous in splicing extract)) (UniProt Q12309).
T3 sequence: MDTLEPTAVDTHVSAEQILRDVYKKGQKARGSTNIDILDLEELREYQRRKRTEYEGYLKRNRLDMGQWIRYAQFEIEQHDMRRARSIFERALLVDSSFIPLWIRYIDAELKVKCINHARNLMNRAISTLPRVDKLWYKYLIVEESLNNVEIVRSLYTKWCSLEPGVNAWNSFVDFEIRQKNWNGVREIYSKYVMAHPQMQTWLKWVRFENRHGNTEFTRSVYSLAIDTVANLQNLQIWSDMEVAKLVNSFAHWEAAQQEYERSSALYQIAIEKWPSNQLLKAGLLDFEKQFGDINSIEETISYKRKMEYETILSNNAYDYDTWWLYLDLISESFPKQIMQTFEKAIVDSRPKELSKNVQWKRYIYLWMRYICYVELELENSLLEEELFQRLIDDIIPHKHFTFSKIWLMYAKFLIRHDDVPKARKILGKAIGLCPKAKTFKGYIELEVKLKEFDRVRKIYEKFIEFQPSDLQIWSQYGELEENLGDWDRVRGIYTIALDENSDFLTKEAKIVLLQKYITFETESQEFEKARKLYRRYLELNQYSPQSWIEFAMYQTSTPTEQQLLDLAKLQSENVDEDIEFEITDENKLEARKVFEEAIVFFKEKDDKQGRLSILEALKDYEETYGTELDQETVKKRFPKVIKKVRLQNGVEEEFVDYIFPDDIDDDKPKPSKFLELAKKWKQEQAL

Assay [4] has as its target T4, Prp19 (S. cerevisiae (endogenous in splicing extract)), P32523.
T4 chain: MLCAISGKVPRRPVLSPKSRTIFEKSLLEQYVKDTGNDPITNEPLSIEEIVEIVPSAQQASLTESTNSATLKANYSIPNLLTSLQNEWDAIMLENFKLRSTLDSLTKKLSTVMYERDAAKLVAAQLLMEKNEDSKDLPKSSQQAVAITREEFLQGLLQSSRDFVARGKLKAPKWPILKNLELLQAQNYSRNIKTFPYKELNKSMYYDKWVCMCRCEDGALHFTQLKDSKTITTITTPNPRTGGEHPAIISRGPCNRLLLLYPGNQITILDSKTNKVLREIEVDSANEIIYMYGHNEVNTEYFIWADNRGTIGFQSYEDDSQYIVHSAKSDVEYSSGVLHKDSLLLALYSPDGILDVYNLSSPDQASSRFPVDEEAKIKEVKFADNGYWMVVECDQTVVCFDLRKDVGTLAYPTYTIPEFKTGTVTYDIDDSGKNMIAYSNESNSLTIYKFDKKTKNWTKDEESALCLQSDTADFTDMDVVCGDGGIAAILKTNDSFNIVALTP
To be noted: remark: other sources report otherwise.

Assay [5] deals with Prp8 (S. cerevisiae (endogenous in splicing extract)) (UniProt P33334).
Assay [6] deals with T5, Cwc25 (S. cerevisiae (endogenous in splicing extract)) (UniProt P53854).
T5 sequence: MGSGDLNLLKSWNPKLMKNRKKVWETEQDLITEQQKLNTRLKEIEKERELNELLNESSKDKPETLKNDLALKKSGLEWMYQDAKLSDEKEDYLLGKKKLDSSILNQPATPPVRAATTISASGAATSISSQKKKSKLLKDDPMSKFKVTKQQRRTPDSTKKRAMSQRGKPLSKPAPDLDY

B1: Isy1 (protein, UniProt P21374 1-235)
chain: MSRNVDKANSVLVRFQEQQAESAGGYKDYSRYQRPRNVSKVKSIKEANEWKRQVSKEIKQKSTRIYDPSLNEMQIAELNDELNNLFKEWKRWQWHIDHTLMEKKTKRKRLEDSHVLMNSGKLINGKRYFGRALELPEVKEWLKQSQRQNDGGSINTKCIPKDRNDFYYHGKVTAALTEFEANWTSILKAHYNVPVNEDEEEMSRQTQEIHVPTLADMEHWLVQRRKKKLMDELNL
With B1, the binding entry in assay [1] and in assay [2] was “binds” throughout.

B2: Ntc20 (protein, UniProt P38302 1-140)
chain: MPSLRDLSLERDQELNQLRARINQLGKTGKEEANDFVGLNISNEPVYDTVIQTGQSSNATNSFVQETIQKTKQKESGQPYIIPQKNEHQRYIDKVCETSDLKAKLAPIMEVLEKKTNEKIKGIIRKRVLQEPDRDNDDSG
Regarding B2, the binding entry in assay [3] and in assay [2] was “binds” throughout.

B3: Prp19, P32523 1-503 (protein)
chain: MLCAISGKVPRRPVLSPKSRTIFEKSLLEQYVKDTGNDPITNEPLSIEEIVEIVPSAQQASLTESTNSATLKANYSIPNLLTSLQNEWDAIMLENFKLRSTLDSLTKKLSTVMYERDAAKLVAAQLLMEKNEDSKDLPKSSQQAVAITREEFLQGLLQSSRDFVARGKLKAPKWPILKNLELLQAQNYSRNIKTFPYKELNKSMYYDKWVCMCRCEDGALHFTQLKDSKTITTITTPNPRTGGEHPAIISRGPCNRLLLLYPGNQITILDSKTNKVLREIEVDSANEIIYMYGHNEVNTEYFIWADNRGTIGFQSYEDDSQYIVHSAKSDVEYSSGVLHKDSLLLALYSPDGILDVYNLSSPDQASSRFPVDEEAKIKEVKFADNGYWMVVECDQTVVCFDLRKDVGTLAYPTYTIPEFKTGTVTYDIDDSGKNMIAYSNESNSLTIYKFDKKTKNWTKDEESALCLQSDTADFTDMDVVCGDGGIAAILKTNDSFNIVALTP
Take B3: the binding result in assay [4] is reported as “binds”.

B4: Prp46 (protein, UniProt Q12417 1-451)
chain: MDGNDHKVENLGDVDKFYSRIRWNNQFSYMATLPPHLQSEMEGQKSLLMRYDTYRKESSSFSGEGKKVTLQHVPTDFSEASQAVISKKDHDTHASAFVNKIFQPEVAEELIVNRYEKLLSQRPEWHAPWKLSRVINGHLGWVRCVAIDPVDNEWFITGSNDTTMKVWDLATGKLKTTLAGHVMTVRDVAVSDRHPYLFSVSEDKTVKCWDLEKNQIIRDYYGHLSGVRTVSIHPTLDLIATAGRDSVIKLWDMRTRIPVITLVGHKGPINQVQCTPVDPQVVSSSTDATVRLWDVVAGKTMKVLTHHKRSVRATALHPKEFSVASACTDDIRSWGLAEGSLLTNFESEKTGIINTLSINQDDVLFAGGDNGVLSFYDYKSGHKYQSLATREMVGSLEGERSVLCSTFDKTGLRLITGEADKSIKIWKQDETATKESEPGLAWNPNLSAKRF
Take B4: the binding result in assay [3] is on record as “binds”.

B5: Syf2 (protein, UniProt P53277 1-215)
chain: MDFYKLDEKLKELKRKRVDVSIKSRKLADREIQEVSANRKPRVYSMEDVNDADESVGDTESPEKEKAFHYTVQEYDAWERRHPQGKTGQSQRGGISYDQLAKLSYEKTLRNLATQTQNSSKQDSSADEEDNKNVPKKGRIGKVQKDTKTGKITIADDDKLVNKLAVSLQSESKKRYEARKRQMQNAKTLYGVESFINDKNKQFNEKLSRESKGSE
In the case of B5, the binding entry in assay [2] is “binds”.

B6: Prp18 (protein, UniProt P33411 1-251)
chain: MDLDLASILKGEISKKKKELANSKGVQPPCTEKFQPHESANIDETPRQVEQESTDEENLSDNQSDDIRTTISKLENRPERIQEAIAQDKTISVIIDPSQIGSTEGKPLLSMKCNLYIHEILSRWKASLEAYHPELFLDTKKALFPLLLQLRRNQLAPDLLISLATVLYHLQQPKEINLAVQSYMKLSIGNVAWPIGVTSVGIHARSAHSKIQGGRNAANIMIDERTRLWITSIKRLITFEEWYTSNHDSLA
For B6, the binding entry in assay [5] is “binds weakly”.

B7: Yju2 (protein, UniProt P28320 1-278)
chain: MSERKAINKYYPPDYNPLEAEKLSRKMAKKLKTMNKSHASIRLMTPFSMRCLECNEYIPKSRKFNGKKELLKEKYLDSIKIYRLTISCPRCANSIAFRTDPGNSDYVMEVGGVRNYVPQKPNDDLNAKTAVESIDETLQRLVREKEMEQNEKMGIKEQADDKMDLLEKRLAKIQQEQEDDEELENLRKKNLEMSQRAEMINRSKHAQQEKAVTTDDLDNLVDQVFDNHRQRTNKPGNNNDEKRTPLFNPTSTKGKIQKKSSVRTNPLGIVIKRGKSLK
For B7, the binding entry in assay [6] and in assay [2] was “binds” throughout.

B8: Prp45 (protein, UniProt P28004 1-379)
chain: MFSNRLPPPKHSQGRVSTALSSDRVEPAILTDQIAKNVKLDDFIPKRQSNFELSVPLPTKAEIQECTARTKSYIQRLVNAKLANSNNRASSRYVTETHQAPANLLLNNSHHIEVVSKQMDPLLPRFVGKKARKVVAPTENDEVVPVLHMDGSNDRGEADPNEWKIPAAVSNWKNPNGYTVALERRVGKALDNENNTINDGFMKLSEALENADKKARQEIRSKMELKRLAMEQEMLAKESKLKELSQRARYHNGTPQTGAIVKPKKQTSTVARLKELAYSQGRDVSEKIILGAAKRSEQPDLQYDSRFFTRGANASAKRHEDQVYDNPLFVQQDIESIYKTNYEKLDEAVNVKSEGASGSHGPIQFTKAESDDKSDNYGA
In the case of B8, the binding entry in assay [3] is recorded as “binds”.
